Experimental data taken from PMC7000521, “Hazard Characterization of Synthetic Cathinones Using Viability, Monoamine Reuptake, and Neuronal Activity Assays” (Frontiers in Neuroscience, 2020).

experiment: Estimated human brain concentrations and comparison with IC50 values; conditions: endpoints whose IC50 lies at or close to the estimated brain concentration, ranked; a = acute, p = prolonged
Source text: To correlate reported effect concentrations to expected concentrations in the human brain during recreational use a brain partitioning factor (BPF; […]) was applied, as actual human brain concentrations following recreational drug use are unknown. Expected concentrations in the human brain were estimated by multiplying recreational human blood/serum/plasma concentrations with the BPF. Human recreational blood, serum, or plasma levels were obtained from literature (driving under the influence or accidental non-fatal intoxications). The BPF was determined for each drug by dividing the brain concentration by the blood/serum/plasma concentration found in human post mortem reports, or animal studies (rat/mice) when human data were insufficient.
To identify the relevance of effects and potentially harmful drugs, effect concentrations (IC50 values) were related to the estimated human brain concentration during recreational use [(brain), Table 2]. By comparing these concentrations, the most relevant neurotoxic mechanisms of cathinones can be identified. […] Only 4-MEC and MDPV inhibited neuronal activity during acute exposure at concentrations within (MDPV) or close to (4-MEC) the estimated brain concentration.

SMILES	IC50 value at or close to estimated human (brain)
CNC(C)C(=O)c1cccc(C)c1 (stereo not shown) [3-MMC, 2-(methylamino)-1-(3-methylphenyl) propan-1-one]	hDAT > hNET
CCNC(C)C(=O)c1ccc(C)cc1 (stereo not shown) [4-MEC, 2-(ethylamino)-1-(4-methylphenyl) propan-1-one]	hDAT > hNET >> MSRa, MBRa, MNBRa
CNC(C)C(=O)c1ccc(C)cc1 (stereo not shown) [4-MMC, 2-(methylamino)-1-(4-methylphenyl) propan-1-one]	hNET > hDAT
CCCC(C(=O)c1ccc2c(c1)OCO2)N1CCCC1 (stereo not shown) [MDPV, 1-(1,3-benzodioxol-5-yl)-2-pyrro lidin-1-ylpentan-1-one]	hNET > hDAT >> hSERT >> MSRa, MSRp, MBRa, MNBRa
CNC(C)C(=O)c1ccc2c(c1)OCO2 (stereo not shown) [Methylone, 1-(1,3-benzodioxol-5-yl)-2-(methylamino)propan-1-one]	hNET, hDAT >> hSERT
CCCC(NC)C(=O)c1ccccc1 (stereo not shown) [Pentedrone, 2-(methylamino)-1-phenyl pentan-1-one]	hDAT > hNET
CCCC(C(=O)c1ccccc1)N1CCCC1 (stereo not drawn) [α-PVP, α-pyrrolidinovalerophenone]	hNET > hDAT
